# According to PMC7480387:
# Negatives hold for the conditions tested. Where a protein sequence is shown, tags need not be part of it. Construct, isoform or probe ends are uncertain for at least one entry. At least one verdict was read from the data and is not stated in words by the source.
# Assays:
# [1] = test system: T1, GST-SfbR2 (Streptomyces filipinensis DSM 40112); test: EMSA; settings: EMSA: 100 mM HEPES pH 7.6, 10 mM KCl, 5 mM MgCl2, 1 mM DTT, 1% Tween 20, 7.8 mM glutathione, 40 ug/ml poly[d(I-C)], 5% glycerol, 30 C, 10 min, recombinant protein, residues 1-205, protein details: N-terminal GST, label: DIG, both 3' ends, probe letters rebuilt from the primers and the genome
# T1 sequence (looked up): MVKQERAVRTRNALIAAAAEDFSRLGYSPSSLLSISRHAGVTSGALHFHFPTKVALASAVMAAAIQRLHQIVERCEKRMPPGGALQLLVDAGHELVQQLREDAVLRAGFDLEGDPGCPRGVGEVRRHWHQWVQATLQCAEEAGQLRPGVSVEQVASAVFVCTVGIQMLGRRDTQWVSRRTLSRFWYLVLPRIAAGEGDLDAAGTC
# [2] = test system: T2, GST-SfbR (Streptomyces filipinensis DSM 40112); test: EMSA; settings: EMSA: 100 mM HEPES pH 7.6, 10 mM KCl, 5 mM MgCl2, 1 mM DTT, 1% Tween 20, 7.8 mM glutathione, 40 ug/ml poly[d(I-C)], 5% glycerol, 30 C, 10 min, recombinant protein, residues 1-233, protein details: N-terminal GST, label: DIG, both 3' ends, probe letters rebuilt from the primers and the genome
# T2 sequence (looked up): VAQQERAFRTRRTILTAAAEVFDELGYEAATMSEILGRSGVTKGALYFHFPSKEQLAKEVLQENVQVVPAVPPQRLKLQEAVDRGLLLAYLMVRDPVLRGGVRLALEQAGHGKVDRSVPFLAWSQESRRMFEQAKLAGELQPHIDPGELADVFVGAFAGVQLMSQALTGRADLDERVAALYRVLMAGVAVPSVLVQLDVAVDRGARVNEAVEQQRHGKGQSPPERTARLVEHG
# [3] = up to 5 uM protein, 0.005 ng/ul probe
# [4] = 2 mM filipin (no dissociation), 0.005 ng/ul probe
# [5] = antimycin A (no dissociation), 0.005 ng/ul probe
Sequence,"binding result [1, 3]","binding result [2, 3]",binding result ([1]; 0.005 ng/ul …),binding result ([2]; 0.005 ng/ul …),"binding result [1, 4]","binding result [2, 5]"
CAGCAGCGGCACGGCAAGGGACAGTCCCCGCCCGAGCGCACGGCCCGCCTCGTCGAGCACGGTTGAGTACGGCCGGATCAGACCCGCACGGCGATCACACACCACCGTGCGGGTCCACCCAGGACGGAGTGCATCAATGGTGGTATCGGCCTGCCCCTACGCCCTGGACCTGACGGGCAGTCACTTAGCGGAGGAAGCCGCCCGGCTCAGACAGCACGGCCCCGCAGCCCGCGTCACCCTGCCCGACGGCGTGCCGGCCTGGGCCGTGACGCGGCACTCCAGCGCCAGGCGACTGCTGGTGGACCCC (double strand) [sfb4p],no binding,no binding,–,–,–,–
AGCTCGTTCCCCCTGCCCGGTCCAGGGTTCCCGGGGGCCGCGGACCCGCGGGCTCCGGCCCGGCGCCTCCCGCGAACCCATGTCCCGGAGCCCTAACAAACCGCATCAGCGGTTTGTTAATCTTGGGGGAGTTGTGGGCGCGTTCTGCTGCCGGGCAGAGCCGCTTGGACGGGGGTGTCATCTCCGTGGCCGTACGCGGCCACGGAACGGCTCGGGAGCTACGGAGCACCTCGATGGTCAAGCAGGAACGTGCCGTACGGACCCGCAACGCGCTGATCGCCGCTGCGGCCGAAGACTTCAGCAGGCTGGGGTACAGCCCTTCCTCGCTGCTGTCCA (double strand) [sfbR2p],–,–,binds,binds,–,–
GAGAGCAGCCCCTTCGCAACGGACCGCGCAGGTCTGCCGCCTTTTTTAACGGGAACCGCGCCGGCCGCTTGTGTGAATACAGCGTTTCACGGCCCGCCGAATGGCTTTACCGCCAGAAGCGGGCCTTCCGCTTCCACTCGAAACGGTTACCCGGCCGAGCGCAAATTTTTCTTCGTGGTCGCCCCAAACTAAACCGGTGAGCCCGTATATTTCGTGGGGACCCTTTCGAACCACGTCGTCATCCAACCTTTGAACCGTCGGGAAGAGGGGAACCCATGACCCTGCTCGTTCGCCAGCAAGAGCCCACCCGC (double strand) [sfbAp],–,–,binds,binds,binds,binds
CGGTGATCTGGGCGTGCCTGCCGTTAACGCGTCGAGCATCAGCGCCTCCTGAGGCATCTCCGGTTCAGGCTTCATGGCGCCGATGATACTGAAAATAAACCGACTACTCCGTTTTATTTGGGCGGGGCTCAAGCGCCTGTAGAGCTGGTTTCGAGCGGGCGGGGCGGGGGCGTCGGGCCTGATCGCAGGCGCCTGAGCCGGGTGAGGGCCGCGCGGCGCAGGGCCGGCGGTTCGTGCTCGGCGCACTCGGCGGCGTAGATGCCGATGAGGCTGTGGAAGCGGTACTCGTTGTCCGGTCCTTCCTCCAGCAGGTGGTGGGCGGC (double strand) [sfb2p],–,–,binds,binds,–,–
GCCGCAGCGGTCAGGATCGTACGCCGCGTCCGAAAGGCCCGTTCCTGCTGCGCCACGCCACACCTCCTCACCCTGACCCGGGTCCCCCACACCCGGGAAGCAAAAGAAACCGTCGAGTTCGTATGCTATCAGCACGTGTTCACGCCCGGGCGGTGATCCTCGCGGTGTGGCCCCTCCGCGGCCCGGCCGGCGCGCGGGACCCGCCCGGAAGGGCCGAAGGGTGGCGTGCGCGGAATTCGGTGGGGGTTTTCGCGCGGTCCGTATCCGCCGGCGCCGGTGAATCGGGGCCGGCGTCGAAACGGGTGCGG (double strand) [sfbRp],–,–,binds,binds,binds,binds
